Measured values published in PMC9161502.
Where two headings read alike, the source gives them in different places. Results are given in words; binding and its absence hold for the method and conditions named. Binding seen in cells or lysates may run through a third protein. Some results given as binding are weak or reduced against the parent protein; the word gives no strength. For some assays here: Where a sequence is shown, tags or fusion partners need not be part of it. Each block holds one molecule with its values, some of them ahead of it.

By UniProt entry, the sequences of proteins in these tests, tags left out.
UniProt Q6PDQ2: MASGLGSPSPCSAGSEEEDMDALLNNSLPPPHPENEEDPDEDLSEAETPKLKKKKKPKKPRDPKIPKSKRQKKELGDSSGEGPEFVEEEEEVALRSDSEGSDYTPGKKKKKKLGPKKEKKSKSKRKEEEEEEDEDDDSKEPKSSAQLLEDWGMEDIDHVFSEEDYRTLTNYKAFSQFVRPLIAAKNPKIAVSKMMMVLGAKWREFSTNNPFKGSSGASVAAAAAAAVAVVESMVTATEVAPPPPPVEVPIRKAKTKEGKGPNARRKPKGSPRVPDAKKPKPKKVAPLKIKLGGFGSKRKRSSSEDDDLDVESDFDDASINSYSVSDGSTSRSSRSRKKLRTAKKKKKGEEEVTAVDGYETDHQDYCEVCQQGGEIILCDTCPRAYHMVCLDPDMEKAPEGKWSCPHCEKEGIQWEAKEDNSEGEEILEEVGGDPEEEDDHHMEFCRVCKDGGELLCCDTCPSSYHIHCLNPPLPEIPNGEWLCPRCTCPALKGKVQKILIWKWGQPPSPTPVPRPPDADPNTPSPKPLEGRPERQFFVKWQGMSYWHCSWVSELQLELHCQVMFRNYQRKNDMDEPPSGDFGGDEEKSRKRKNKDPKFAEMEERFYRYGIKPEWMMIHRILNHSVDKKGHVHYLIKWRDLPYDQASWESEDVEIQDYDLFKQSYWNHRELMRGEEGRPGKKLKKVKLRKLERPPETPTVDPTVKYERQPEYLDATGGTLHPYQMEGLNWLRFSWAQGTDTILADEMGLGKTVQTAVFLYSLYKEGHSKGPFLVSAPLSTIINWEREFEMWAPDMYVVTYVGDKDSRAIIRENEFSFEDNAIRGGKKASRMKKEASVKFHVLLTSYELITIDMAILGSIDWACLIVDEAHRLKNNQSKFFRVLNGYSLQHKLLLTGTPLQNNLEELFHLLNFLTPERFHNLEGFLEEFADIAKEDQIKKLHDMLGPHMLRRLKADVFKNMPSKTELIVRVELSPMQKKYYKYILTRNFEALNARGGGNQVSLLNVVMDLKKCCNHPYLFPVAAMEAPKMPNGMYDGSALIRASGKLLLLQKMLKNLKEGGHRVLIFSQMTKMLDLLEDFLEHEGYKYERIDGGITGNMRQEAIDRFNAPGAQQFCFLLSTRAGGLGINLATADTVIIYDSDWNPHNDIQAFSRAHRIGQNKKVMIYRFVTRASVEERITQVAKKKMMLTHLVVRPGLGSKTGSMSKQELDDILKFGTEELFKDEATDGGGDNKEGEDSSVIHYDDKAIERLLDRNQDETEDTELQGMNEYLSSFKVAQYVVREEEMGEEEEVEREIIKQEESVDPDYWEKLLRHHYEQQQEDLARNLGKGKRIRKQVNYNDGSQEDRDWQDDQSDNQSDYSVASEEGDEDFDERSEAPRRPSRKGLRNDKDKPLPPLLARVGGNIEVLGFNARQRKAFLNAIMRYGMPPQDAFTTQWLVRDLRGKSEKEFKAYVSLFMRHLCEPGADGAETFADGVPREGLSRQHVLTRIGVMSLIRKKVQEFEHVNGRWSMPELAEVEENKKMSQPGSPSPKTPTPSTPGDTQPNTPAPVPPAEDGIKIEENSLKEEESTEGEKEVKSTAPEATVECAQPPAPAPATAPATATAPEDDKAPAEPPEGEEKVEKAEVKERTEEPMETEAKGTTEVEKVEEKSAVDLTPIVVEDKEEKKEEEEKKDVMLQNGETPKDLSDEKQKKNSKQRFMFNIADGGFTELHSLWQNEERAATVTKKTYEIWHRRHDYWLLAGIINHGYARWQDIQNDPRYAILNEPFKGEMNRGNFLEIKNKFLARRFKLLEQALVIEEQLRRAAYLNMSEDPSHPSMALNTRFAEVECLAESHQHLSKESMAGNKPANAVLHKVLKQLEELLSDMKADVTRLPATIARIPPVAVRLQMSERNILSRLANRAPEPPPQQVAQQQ
UniProt P97496: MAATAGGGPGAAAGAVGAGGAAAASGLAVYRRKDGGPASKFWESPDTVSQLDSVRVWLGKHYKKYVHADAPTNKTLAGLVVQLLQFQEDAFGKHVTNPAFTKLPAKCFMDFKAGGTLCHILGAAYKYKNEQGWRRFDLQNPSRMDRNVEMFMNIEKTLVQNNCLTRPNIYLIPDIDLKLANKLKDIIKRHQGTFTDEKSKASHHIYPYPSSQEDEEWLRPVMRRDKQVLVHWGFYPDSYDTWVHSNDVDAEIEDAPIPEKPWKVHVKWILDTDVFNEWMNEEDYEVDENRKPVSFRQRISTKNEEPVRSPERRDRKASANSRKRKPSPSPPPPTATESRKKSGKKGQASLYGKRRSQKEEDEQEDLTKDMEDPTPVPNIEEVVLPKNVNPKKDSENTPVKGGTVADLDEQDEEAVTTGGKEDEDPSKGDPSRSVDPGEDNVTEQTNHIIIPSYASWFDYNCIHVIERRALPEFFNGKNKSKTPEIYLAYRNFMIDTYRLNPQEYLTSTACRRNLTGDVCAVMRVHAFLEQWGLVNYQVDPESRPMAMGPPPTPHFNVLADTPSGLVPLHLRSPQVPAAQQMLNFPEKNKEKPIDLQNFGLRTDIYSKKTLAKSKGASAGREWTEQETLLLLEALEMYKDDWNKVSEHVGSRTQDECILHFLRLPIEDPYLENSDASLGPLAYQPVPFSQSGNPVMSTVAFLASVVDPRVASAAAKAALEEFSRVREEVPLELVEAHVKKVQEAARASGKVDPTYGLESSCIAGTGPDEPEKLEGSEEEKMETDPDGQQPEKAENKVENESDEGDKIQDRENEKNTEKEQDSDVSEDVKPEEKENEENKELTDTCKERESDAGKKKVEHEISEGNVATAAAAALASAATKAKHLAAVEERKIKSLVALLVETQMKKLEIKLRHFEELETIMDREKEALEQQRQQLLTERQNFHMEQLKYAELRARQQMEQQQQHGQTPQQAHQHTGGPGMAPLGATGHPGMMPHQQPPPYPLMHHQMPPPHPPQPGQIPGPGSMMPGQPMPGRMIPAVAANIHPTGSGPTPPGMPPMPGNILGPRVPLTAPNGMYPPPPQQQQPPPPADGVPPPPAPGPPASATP
UniProt A2BH40: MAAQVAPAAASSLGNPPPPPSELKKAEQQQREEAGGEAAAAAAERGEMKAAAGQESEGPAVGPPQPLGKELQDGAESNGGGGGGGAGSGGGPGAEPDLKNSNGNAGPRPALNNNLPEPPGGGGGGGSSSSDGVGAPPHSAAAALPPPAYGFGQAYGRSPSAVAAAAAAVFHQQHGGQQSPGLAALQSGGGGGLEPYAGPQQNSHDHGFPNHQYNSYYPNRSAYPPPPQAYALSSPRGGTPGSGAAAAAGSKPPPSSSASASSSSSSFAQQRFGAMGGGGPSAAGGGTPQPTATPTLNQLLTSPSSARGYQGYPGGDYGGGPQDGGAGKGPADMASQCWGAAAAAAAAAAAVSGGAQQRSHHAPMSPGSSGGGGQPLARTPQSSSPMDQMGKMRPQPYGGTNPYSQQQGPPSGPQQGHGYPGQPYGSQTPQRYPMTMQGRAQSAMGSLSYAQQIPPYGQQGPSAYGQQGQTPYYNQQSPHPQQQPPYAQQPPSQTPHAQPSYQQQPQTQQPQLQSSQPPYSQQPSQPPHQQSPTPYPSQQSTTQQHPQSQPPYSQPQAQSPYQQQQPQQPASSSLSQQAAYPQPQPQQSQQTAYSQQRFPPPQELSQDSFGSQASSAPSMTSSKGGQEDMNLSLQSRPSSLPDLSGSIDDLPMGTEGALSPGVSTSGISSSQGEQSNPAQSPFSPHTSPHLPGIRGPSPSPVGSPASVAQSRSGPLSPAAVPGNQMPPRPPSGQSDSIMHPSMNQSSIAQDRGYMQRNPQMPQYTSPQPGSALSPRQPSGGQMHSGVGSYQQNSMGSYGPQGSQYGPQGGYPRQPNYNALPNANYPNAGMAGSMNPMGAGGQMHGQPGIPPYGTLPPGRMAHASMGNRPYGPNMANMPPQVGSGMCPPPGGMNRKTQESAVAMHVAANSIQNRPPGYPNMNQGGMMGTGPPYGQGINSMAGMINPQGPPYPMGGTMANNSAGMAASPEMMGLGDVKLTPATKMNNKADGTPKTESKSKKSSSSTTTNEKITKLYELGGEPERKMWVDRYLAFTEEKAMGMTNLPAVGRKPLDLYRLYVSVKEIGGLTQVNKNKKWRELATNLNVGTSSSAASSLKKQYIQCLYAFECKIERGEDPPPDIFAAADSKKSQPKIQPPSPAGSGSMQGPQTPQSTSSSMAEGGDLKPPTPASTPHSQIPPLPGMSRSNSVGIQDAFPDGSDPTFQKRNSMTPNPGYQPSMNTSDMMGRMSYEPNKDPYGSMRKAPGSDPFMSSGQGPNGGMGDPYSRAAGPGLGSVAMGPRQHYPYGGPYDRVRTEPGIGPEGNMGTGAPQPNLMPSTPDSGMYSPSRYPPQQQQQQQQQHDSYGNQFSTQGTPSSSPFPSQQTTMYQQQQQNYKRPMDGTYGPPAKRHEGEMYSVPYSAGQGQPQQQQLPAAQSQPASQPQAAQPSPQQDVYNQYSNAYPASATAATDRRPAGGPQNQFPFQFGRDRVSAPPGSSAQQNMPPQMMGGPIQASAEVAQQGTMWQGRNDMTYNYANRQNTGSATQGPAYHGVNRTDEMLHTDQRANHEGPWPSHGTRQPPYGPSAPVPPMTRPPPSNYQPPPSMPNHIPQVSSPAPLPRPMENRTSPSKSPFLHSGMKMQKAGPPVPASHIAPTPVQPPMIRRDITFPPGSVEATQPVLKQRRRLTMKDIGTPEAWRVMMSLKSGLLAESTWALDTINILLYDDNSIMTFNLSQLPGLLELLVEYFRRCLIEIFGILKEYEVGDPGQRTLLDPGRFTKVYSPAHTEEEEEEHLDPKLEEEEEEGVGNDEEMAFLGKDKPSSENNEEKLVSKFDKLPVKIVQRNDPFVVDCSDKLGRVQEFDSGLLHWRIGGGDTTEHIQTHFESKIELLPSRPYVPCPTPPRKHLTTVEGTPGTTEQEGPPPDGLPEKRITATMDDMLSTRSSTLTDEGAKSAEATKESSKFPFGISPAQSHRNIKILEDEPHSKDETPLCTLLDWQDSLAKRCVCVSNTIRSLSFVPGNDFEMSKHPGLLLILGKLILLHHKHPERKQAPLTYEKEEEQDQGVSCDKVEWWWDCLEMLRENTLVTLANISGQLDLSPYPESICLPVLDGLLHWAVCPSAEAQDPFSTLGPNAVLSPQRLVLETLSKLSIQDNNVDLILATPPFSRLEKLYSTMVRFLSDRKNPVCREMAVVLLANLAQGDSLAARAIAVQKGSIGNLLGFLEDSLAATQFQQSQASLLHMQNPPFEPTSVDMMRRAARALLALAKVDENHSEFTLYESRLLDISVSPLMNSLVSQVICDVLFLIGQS
UniProt P23198: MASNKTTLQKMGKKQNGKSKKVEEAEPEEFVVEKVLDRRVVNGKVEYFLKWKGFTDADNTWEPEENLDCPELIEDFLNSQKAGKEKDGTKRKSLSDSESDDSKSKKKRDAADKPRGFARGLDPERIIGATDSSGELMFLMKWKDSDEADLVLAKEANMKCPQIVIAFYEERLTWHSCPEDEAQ

Legend:
[1] = target: T1, POGZ (endogenous, mouse ESCs) (mouse (endogenous in mESCs R1)) (UniProt Q8BZH4); experiment: co-IP; endogenous proteins in WT ESCs; total cell lysate with antibody-conjugated Dynabeads Protein G overnight at 4 °C, three washes with PBS 0.1% Tween; Western blot
T1 sequence: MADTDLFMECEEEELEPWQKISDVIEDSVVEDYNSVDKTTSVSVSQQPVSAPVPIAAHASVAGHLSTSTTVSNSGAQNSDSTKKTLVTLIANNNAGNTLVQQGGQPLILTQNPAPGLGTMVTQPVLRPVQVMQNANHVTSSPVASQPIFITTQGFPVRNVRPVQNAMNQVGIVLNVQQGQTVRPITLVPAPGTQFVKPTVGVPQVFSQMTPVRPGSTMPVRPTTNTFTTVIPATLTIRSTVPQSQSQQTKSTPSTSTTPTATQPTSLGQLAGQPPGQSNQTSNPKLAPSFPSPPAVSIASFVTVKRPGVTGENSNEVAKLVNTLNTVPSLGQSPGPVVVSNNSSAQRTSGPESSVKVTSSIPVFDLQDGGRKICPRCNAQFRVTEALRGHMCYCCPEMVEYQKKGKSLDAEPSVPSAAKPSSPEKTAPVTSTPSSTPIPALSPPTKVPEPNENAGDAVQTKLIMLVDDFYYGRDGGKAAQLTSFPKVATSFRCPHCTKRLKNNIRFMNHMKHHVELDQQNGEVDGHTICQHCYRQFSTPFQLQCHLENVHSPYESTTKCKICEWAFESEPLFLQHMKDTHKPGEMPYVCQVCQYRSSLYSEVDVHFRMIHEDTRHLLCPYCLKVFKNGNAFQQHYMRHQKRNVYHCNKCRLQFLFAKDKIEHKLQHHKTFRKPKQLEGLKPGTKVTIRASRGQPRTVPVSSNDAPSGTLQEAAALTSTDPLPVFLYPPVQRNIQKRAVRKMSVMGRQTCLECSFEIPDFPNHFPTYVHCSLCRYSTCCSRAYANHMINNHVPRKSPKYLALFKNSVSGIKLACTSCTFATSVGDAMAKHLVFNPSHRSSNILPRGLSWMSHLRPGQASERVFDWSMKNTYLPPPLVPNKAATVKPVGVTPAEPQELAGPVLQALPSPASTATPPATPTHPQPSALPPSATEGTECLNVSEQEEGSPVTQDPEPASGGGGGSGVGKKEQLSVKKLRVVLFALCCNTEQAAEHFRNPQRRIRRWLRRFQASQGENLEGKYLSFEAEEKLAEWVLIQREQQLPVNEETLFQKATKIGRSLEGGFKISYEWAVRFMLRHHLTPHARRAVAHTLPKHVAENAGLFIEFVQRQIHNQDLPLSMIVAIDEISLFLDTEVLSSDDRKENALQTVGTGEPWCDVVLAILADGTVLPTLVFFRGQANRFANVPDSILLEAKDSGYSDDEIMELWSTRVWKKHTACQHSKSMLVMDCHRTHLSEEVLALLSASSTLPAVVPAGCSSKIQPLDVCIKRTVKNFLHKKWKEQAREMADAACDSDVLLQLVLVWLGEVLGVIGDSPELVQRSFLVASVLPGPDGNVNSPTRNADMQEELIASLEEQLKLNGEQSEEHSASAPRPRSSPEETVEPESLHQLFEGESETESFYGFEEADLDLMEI

3 × Flag-POGZ (mouse) = target: T2, 3 × Flag-POGZ (mouse) (UniProt Q8BZH4); experiment: co-IP; FLAG-POGZ Pogz−/− ESCs; total cell lysate with antibody-conjugated Dynabeads Protein G overnight at 4 °C, three washes with PBS 0.1% Tween; Western blot
T2 sequence: T1 sequence

[2] = target: T3, POGZ (in vitro synthesized) (UniProt Q8BZH4); experiment: co-IP; proteins synthesized in TNT rabbit reticulocyte lysate, 5–10 μl of each mixed in 300 μl TEN buffer, 30 min at room temperature; IP with Dynabeads protein G coupled with antibodies; Western blot
T3 sequence: T1 sequence

[3] = target: T1, POGZ (endogenous, mouse ESCs) (mouse (endogenous in mESCs R1)); experiment: co-IP; endogenous proteins in WT ESCs; total cell lysate with antibody-conjugated Dynabeads Protein G overnight at 4 °C, three washes with PBS 0.1% Tween; Western blot; remark: listed apart in the source
[4] = target: T4, ADNP (mouse (endogenous in mESCs)) (UniProt Q9Z103); experiment: as above
T4 sequence: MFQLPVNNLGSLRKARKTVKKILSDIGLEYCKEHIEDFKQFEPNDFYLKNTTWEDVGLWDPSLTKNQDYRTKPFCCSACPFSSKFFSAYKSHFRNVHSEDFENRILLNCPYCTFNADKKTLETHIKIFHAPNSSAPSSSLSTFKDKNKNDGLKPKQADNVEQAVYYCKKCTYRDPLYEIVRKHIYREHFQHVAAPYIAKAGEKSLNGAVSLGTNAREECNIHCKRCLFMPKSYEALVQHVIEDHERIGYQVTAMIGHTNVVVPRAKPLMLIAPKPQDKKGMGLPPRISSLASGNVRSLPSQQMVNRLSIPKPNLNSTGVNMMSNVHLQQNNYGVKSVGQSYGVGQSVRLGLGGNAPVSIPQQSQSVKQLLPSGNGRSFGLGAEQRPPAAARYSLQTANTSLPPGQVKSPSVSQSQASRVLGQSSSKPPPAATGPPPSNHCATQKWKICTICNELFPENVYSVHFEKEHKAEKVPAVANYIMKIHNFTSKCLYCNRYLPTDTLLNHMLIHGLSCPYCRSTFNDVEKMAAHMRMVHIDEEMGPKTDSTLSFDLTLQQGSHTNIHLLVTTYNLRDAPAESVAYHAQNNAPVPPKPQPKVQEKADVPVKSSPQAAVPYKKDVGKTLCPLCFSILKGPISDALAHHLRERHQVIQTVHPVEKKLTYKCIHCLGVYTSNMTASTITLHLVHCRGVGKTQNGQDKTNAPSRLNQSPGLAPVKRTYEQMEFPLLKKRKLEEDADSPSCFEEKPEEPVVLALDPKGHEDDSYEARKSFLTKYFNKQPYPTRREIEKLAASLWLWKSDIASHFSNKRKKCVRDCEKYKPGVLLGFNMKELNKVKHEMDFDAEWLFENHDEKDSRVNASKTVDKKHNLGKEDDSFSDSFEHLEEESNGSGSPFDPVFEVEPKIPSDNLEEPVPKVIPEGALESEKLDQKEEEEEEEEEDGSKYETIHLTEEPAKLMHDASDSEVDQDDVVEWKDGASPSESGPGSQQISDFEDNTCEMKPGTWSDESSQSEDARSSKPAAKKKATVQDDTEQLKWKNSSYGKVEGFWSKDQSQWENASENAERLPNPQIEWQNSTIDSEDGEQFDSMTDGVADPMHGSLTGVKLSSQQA

binding [1]: no binding | binding (3 × Flag-POGZ (mouse)): no binding
Molecule: CHD4 (from UniProt Q6PDQ2 1-1915)

binding [2]: binds weakly
Molecule: FLAG-BAF155 (in vitro synthesized) (from UniProt P97496 1-1104)

binding [1]: binds | binding (3 × Flag-POGZ (mouse)): binds
Molecule: SMARCA4/BRG1 (endogenous, mouse ESCs) (from UniProt Q3TKT4 1-1613)

binding (3 × Flag-POGZ (mouse)): no binding
Molecule: ARID1A/BAF250a (from UniProt A2BH40 1-2283)

binding [1]: binds | binding (3 × Flag-POGZ (mouse)): binds
Molecule: SMARCC1/BAF155 (endogenous, mouse ESCs) (from UniProt P97496 1-1104)

binding (3 × Flag-POGZ (mouse)): binds
Molecule: HP1γ/CBX3 (from UniProt P23198 1-183)

binding [3]: no binding
B1: ADNP (protein, UniProt Q9Z103 1-1108)
chain: T4 sequence

binding [4]: no binding
B2: POGZ (endogenous, mouse ESCs) (protein, UniProt Q8BZH4 1-1409)
chain: T1 sequence
